## Percent effect of library compounds

Amino acid sequences for entries named in this document (tags omitted). Residues count along the entry.
UniProt P9WPC5, whole entry: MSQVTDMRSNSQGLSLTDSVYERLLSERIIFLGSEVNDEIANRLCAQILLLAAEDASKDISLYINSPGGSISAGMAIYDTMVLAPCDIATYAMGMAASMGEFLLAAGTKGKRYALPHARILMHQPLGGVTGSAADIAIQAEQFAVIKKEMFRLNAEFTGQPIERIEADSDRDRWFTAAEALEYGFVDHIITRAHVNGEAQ
UniProt P9WPC3, whole entry partner: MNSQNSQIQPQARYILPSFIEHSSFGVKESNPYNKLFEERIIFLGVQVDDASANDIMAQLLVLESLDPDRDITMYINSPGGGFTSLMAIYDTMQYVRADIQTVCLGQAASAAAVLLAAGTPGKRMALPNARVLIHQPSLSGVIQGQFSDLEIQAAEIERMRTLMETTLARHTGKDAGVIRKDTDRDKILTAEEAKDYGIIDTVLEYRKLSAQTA
UniProt Q4DA54, 1-478: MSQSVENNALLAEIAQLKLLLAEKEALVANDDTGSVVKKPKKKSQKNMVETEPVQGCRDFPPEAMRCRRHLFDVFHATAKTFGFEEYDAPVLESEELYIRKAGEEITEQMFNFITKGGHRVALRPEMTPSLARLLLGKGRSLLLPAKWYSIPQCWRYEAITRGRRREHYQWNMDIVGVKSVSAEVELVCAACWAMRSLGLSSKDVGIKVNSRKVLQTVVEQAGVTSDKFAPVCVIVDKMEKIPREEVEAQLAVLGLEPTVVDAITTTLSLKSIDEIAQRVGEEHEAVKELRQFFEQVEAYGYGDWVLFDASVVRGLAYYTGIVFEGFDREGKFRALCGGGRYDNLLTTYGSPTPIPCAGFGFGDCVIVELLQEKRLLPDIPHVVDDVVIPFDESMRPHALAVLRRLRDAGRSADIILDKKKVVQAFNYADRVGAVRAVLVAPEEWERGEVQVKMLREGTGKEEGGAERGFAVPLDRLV
UniProt I6X8D2, whole entry: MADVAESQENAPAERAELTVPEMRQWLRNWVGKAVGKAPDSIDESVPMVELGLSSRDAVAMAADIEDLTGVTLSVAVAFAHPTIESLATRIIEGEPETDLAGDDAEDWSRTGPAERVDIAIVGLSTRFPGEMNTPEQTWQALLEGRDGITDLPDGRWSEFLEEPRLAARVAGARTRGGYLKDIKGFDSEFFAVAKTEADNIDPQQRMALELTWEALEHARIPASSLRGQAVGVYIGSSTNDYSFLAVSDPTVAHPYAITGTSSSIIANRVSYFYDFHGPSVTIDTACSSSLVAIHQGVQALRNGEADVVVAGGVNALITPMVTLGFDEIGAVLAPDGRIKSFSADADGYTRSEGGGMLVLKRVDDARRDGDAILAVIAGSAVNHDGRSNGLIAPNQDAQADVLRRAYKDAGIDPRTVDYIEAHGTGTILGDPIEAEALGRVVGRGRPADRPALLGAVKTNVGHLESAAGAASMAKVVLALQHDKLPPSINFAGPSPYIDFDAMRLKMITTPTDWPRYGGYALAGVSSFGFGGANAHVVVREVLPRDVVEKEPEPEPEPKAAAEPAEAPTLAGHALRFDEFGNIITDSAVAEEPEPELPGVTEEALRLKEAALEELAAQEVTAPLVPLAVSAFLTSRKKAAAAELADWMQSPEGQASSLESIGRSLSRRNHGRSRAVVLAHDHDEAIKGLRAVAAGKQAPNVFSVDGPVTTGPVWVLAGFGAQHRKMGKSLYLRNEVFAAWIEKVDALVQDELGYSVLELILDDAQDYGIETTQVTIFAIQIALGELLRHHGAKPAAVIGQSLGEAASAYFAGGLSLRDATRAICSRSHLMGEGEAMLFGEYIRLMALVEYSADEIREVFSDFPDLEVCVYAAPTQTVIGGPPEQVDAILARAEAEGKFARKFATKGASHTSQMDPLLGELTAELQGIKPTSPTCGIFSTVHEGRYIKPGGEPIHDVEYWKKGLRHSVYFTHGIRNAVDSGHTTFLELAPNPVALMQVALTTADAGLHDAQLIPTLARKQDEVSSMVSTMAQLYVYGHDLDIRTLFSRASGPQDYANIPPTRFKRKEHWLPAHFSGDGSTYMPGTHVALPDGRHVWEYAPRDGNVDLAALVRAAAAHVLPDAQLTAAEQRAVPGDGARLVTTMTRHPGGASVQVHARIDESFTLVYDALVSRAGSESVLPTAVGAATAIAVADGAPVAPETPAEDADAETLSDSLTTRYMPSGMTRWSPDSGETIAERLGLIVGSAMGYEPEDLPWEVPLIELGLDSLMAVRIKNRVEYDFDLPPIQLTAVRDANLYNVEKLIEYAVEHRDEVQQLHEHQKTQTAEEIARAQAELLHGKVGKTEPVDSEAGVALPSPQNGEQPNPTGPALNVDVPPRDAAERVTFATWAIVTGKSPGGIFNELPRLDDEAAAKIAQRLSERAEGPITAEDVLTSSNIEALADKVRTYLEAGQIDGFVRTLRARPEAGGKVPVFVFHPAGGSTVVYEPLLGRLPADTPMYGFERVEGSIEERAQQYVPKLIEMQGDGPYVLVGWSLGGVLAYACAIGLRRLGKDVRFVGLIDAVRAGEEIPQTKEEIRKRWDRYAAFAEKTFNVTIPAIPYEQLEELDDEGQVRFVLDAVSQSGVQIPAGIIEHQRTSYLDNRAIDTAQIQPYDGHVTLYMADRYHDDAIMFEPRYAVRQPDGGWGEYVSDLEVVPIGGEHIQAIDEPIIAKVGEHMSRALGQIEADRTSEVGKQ
UniProt Q8IDJ8, 1-583: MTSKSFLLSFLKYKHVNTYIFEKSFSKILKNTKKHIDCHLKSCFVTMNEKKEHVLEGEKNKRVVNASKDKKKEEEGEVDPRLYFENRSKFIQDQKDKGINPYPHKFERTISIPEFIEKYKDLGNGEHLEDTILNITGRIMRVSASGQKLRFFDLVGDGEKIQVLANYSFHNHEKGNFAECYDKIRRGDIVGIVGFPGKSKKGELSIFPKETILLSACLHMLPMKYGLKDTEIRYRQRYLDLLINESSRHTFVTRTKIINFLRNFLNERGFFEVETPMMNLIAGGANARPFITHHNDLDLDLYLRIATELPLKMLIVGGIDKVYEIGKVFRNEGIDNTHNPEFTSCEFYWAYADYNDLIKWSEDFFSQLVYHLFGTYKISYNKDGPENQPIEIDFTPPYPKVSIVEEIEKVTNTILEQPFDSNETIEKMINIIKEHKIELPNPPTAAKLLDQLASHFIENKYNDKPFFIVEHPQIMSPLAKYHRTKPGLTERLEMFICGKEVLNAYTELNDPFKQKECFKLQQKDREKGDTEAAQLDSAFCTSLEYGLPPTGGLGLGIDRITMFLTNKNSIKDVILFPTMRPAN

A: 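Protease assay of ClpP1P2, read by the AMC dye that it sets free. Target: ClpP1P2, Mycobacterium tuberculosis (UniProt P9WPC5 and UniProt P9WPC3). Concentration: 50 µM. Direction is inferred from only a few compounds that gave an IC50; most scored high, so higher reads as stronger inhibition. Most other retested compounds had strongly negative values. Of about 69,000 compounds tested this way, about 10 (0.015%) reached 50% or more in at least one test.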
B: 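Assay of Toxoplasma gondii numbers, read through their beta-galactosidase reporter with a colour substrate. Concentration: 10 µM. Higher reads as fewer parasites (inferred from which compounds were picked for retests). Size under these conditions: about 67,000 compounds, about 260 of them at 50% or above in at least one test.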
C: 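Enzyme assay of histidyl-tRNA synthetase; the read-out is not stated. Target: Histidine-tRNA ligase, Trypanosoma cruzi CL Brener (UniProt Q4DA54). Compounds at 30 µM. Higher reads as stronger inhibition (inferred: compounds with an IC50 in retests scored well above the rest). Of about 69,000 compounds tested this way, about 31 (0.045%) reached 50% or more in at least one test.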
D: 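Enzyme assay of the thioesterase domain of polyketide synthase 13; the read-out is not stated. Target: Polyketide synthase Pks13, Mycobacterium tuberculosis (UniProt I6X8D2). Compounds at 30 µM. The record gives no direction; the compounds picked for IC50 retests had high values, so higher reads as stronger inhibition. About 67,000 compounds were tested under these conditions; 0.46% (about 300) showed 50% or more at least once.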
E: 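Enzyme assay of the cytosolic lysyl-tRNA synthetase in 384-well plates, read by luminescence. Target: Lysine-tRNA ligase, Plasmodium falciparum 3D7 (UniProt Q8IDJ8). Tested at 30 µM. Direction is inferred from only a few compounds that gave an IC50; most scored high, so higher reads as stronger inhibition. About 69,000 compounds were tested under these conditions; 0.071% (about 49) showed 50% or more at least once.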

The filed quantity is “Percent Effect” (%).
How 0% and 100% were set is not recorded. Most values in the screen are low, and negative values occur.
This is an unselected part of the compounds tested.
A dash means the value is not listed here; it may have been measured.

structure	A	B	C	D	E
CNC(=O)COC1COC2(CCN(c3ccc(C)nn3)CC2)C1.O=C(O)C(F)(F)F (centres unmarked)	-	7.811%	-	-	-
CC(C)CN1Cc2nc(N3CCCC(C)C3)ncc2C1=O (centres unmarked)	-10.91%	-7.323%	5.804%	-4.31%	4.721%
COCC(=O)NCCCn1nc2ccccn2c1=O	-11.38%	-9.832%	4.878%	9.99%	4.483%
CCc1nc(CN2CCN(C(=O)c3cc(C)no3)CC2)cs1	-4.855%	7.183%	0.8333%	2.545%	3.268%
Cc1cc(-c2nn(C)c(Cl)c2CN2CCC3(CC2)[C@H](O)C[C@@H]3O)no1	-0.1342%	-18.52%	1.02%	-5.166%	7.498%
CC(C)N1[C@H](CN2CCCC2)C[C@@H]2CN(C(=O)c3ccoc3)CC[C@@H]21	-0.3012%	-	3.681%	15.8%	4.243%
CN(CCCN1CCCCCC1)C(=O)c1ccccc1NCC(=O)O	-8.025%	-3.617%	11.6%	-28.64%	5.375%
CCc1ccc(C(=O)NCCCC2(C3OCCO3)CCOCC2)cc1	3.903%	7.692%	-5.759%	9.502%	-4.401%
[H][C@]12CC[C@]([H])(CN(C3Cc4ccccc4C3)C1)N(Cc1cc(CC)no1)C2	-	3.853%	-	-	-
[H][C@@]12CCCN1CCCN(c1cc(C)nc3c(C)c(C)nn13)C2	-	1.973%	-	-	-
O=C(CC1CCCC1)N1CCOC(c2nc(-c3ncccn3)no2)C1 (centres unmarked)	10.46%	9.777%	13.83%	8.505%	7.151%
Cc1nc(C)n(CC2CN(Cc3cccs3)Cc3nccn3C2)n1 (centres unmarked)	1.779%	-	6.522%	21.63%	1.377%
CNC[C@H]1CC[C@H](c2cc(CN(C)C(=O)c3cnccn3)n(C)n2)CC1	14.1%	-	5.747%	-6.042%	-0.4415%
Cc1noc(C)c1CN1CCC(c2ccnn2CCO)CC1	-18.51%	-45.09%	2.305%	-29.92%	0.717%
O=S(=O)(NCc1ccccc1Cn1cncn1)N1CCCCCC1	12.47%	4.39%	0.8596%	-18.2%	13.32%
[H][C@]12CCN(Cc3ccncc3)C(=O)[C@]1([H])CN(CC)C2	-	-1.294%	-	-	-
COCCOCC(=O)Nc1ccc(C)cc1F	4.057%	0.553%	0%	-20.44%	-0.4527%
CC(C)NC(=O)c1cc2c(c3ccccc3n2C)n1C(=O)N(C)C	-2.413%	-9.235%	4.202%	33.6%	2.662%
O=C(O)CC1COCCN1CCCc1ccccc1 (centres unmarked)	2.29%	7.22%	9.278%	-7.184%	-2.607%
O=C(O)C(F)(F)F.O=C(O)C(F)(F)F.[H][C@@]12CCCO[C@]1([H])[C@H](NC(=O)c1cccnc1)CN(c1ncccn1)C2	-	3.775%	-	-	-
Cc1noc(C2CCN(C(=O)c3ccc(NC4CC4)nc3)CC2)n1	11.06%	-3.985%	2.29%	-8.096%	4.712%
CN(Cc1ccccn1)C1CCCN(c2cccnn2)C1 (centres unmarked)	-9.765%	29.87%	-0.2907%	-13.49%	1.179%
Cc1cc(CNC(=O)NCC(O)c2cccc(F)c2)no1 (centres unmarked)	-6.4%	-12.48%	8.434%	3.612%	-0.1212%
COc1cccc(CN(C)C(=O)Nc2ccc3c(c2)OCCO3)c1	4.74%	-1.257%	-1.087%	-13.18%	6.837%
CO[C@@H]1CCN(C(=O)c2cnoc2C)[C@H]1Cc1ccccc1	-1.394%	-7.387%	0%	4.248%	-1.02%
Clc1ccc(CNc2ccc(Cl)cn2)cc1	13.22%	5.21%	6.077%	-15.15%	2.841%
O=C1NCCCC[C@@H]1NC(=O)C1(N2CCCCC2)Cc2ccccc2C1	-6.44%	5.535%	3.03%	-12.82%	1.103%
O=C(O)C(F)(F)F.O=C(O)C(F)(F)F.OCCN1CC2(CCN(c3ccccc3)C2)C1	-	-0.4782%	-	-	-
CC[C@@H]1N(Cc2nccs2)CCC[C@]12CCC(=O)N2C.O=C(O)C(F)(F)F	-	-15.11%	-	-	-
Cc1ccccc1CN1C[C@@H]2CC[C@H](C1)N(CC1CCC1)C2=O	-6.124%	-	1.508%	4.137%	3.272%
Cc1nccn1-c1ncccc1NC(=O)CCOCC(C)C	11.7%	11.24%	9.845%	-9.172%	9.67%
c1ccc(-n2ccc(CN3CCCC3Cn3cncn3)n2)cc1 (centres unmarked)	-12.89%	-0.1745%	4%	18.67%	-1.369%
[H][C@@]12C[C@@H](O)CN1C[C@H](Cc1ccccc1)N(Cc1cnc(CC)nc1)C2	-	-9.339%	-	-	-
CCNC(=O)N(Cc1cccc(OC)c1)C1CCC(O)CC1 (centres unmarked)	0.3906%	5.057%	10.39%	-48.43%	4.832%
Cc1ncccc1NS(=O)(=O)Cc1cccc(F)c1	-2.951%	9.145%	6.736%	-9.965%	6.285%
CN(C)c1ncc2c(n1)C1(CCN(Cc3ccccc3)C1)COC2.O=C(O)C(F)(F)F (centres unmarked)	-	8.725%	-	-	-
CC(C)N1CC2(CCCN(c3ccccn3)C2)CCC1=O (centres unmarked)	-2.869%	11.42%	5.579%	-9.539%	2.784%
c1cc(NC2CC3(CCN(Cc4cscn4)C3)C2)ncn1 (centres unmarked)	-25.84%	-36.01%	3.143%	-	0.06079%
CCCN1C(=O)CC(N2CCN(c3ccc(F)cc3)CC2)C1=O (centres unmarked)	7.334%	5.38%	1.087%	-23.9%	0.3134%
CNc1ncccc1CN1CCCCC1c1ccnc(N)n1 (centres unmarked)	2.811%	5.429%	8.791%	16.32%	4.096%
c1cc(C[C@H]2[C@H](N3CCOCC3)CCN2Cc2ccoc2)ccn1	-5.632%	-3.325%	0.4975%	-13.4%	2.178%
COc1cccc2ccn(CC(=O)NC(C)C)c12	-4.111%	10.54%	-2.924%	-30.66%	-3.782%
O=C(O)CCn1ccc2cc(Br)ccc21	11.25%	1.078%	-5.941%	6.045%	-2.666%
O=C(O)C(F)(F)F.[H][C@@]12CCCO[C@]1([H])[C@@H](NC(=O)N(C)C)CN2Cc1ccc2c(c1)OCO2	-	-14.84%	-	-	-
CCN1CC(COC(=O)c2ccc(N(C)C)cc2F)CC1=O (centres unmarked)	-2.923%	1.652%	3.867%	-7.929%	2.534%
CN(C)c1ccc(NC(=O)NCc2ccc(Cl)s2)cn1	-7.739%	-1.136%	-32.63%	8.566%	7.709%
c1cc2nc(C3CCNCC3)nn2cc1NC1CCC1	42.7%	-7.798%	8.543%	-21.8%	-2.65%
CCn1nccc1CN(C)C(=O)Cn1cc2c(n1)c(C)nn2CC	-9.628%	-15.62%	0%	12.78%	0.4249%
CCSc1nnc(CCNC(=O)OC(C)(C)C)o1	13.73%	15.84%	0.5848%	-0.9325%	-7.249%
CC1c2ncc(COCc3ccccn3)n2CCN1C1CCCC1 (centres unmarked)	0.9661%	-	2.488%	-15.64%	3.783%
O=C1CC(c2ccncc2)C2(CCN(CCO)CC2)N1 (centres unmarked)	0.2477%	13.62%	-0.5464%	-9.874%	1.33%
O=C(c1ccc(F)c(Cl)c1)N1C[C@@H]2CC[C@H](C1)N(Cc1ccccc1)C2	-10.89%	-	9.917%	-23.84%	5.408%
Cc1noc(C)c1CN1CCCC(c2noc(C3CC3)n2)C1 (centres unmarked)	-14.59%	3.143%	4.36%	-6.892%	1.461%

The first 6 entries again:

Result for CNC(=O)COC1COC2(CCN(c3ccc(C)nn3)CC2)C1.O=C(O)C(F)(F)F (centres unmarked) was B: 7.811%.
Result for CC(C)CN1Cc2nc(N3CCCC(C)C3)ncc2C1=O (centres unmarked) was A: -10.91%; B: -7.323%; C: 5.804%; D: -4.31%; E: 4.721%.
Result for COCC(=O)NCCCn1nc2ccccn2c1=O was A: -11.38%; B: -9.832%; C: 4.878%; D: 9.99%; E: 4.483%.
Result for CCc1nc(CN2CCN(C(=O)c3cc(C)no3)CC2)cs1 was A: -4.855%; B: 7.183%; C: 0.8333%; D: 2.545%; E: 3.268%.
Result for Cc1cc(-c2nn(C)c(Cl)c2CN2CCC3(CC2)[C@H](O)C[C@@H]3O)no1 was A: -0.1342%; B: -18.52%; C: 1.02%; D: -5.166%; E: 7.498%.
Result for CC(C)N1[C@H](CN2CCCC2)C[C@@H]2CN(C(=O)c3ccoc3)CC[C@@H]21 was A: -0.3012%; C: 3.681%; D: 15.8%; E: 4.243%.

From ChEMBL document CHEMBL3988442, “University of Dundee, Small-Polar-MMV Screening Library” (2021).